{
  "source": "patent US9539341B2",
  "about": "“Methods and compositions for targeting adipose cells in mammals” (Board of Regents, the University of Texas System, priority 2011, dated 2017)",
  "key": {"[1]": {"biological_target": "T1, recombinant bacterially-purified full-length core mouse DCN (mDCN) (Mus musculus, UniProt P28654)", "T1 construct": "cloning fragments encoding amino acids 1-354 and 45-354 of mouse DCN cDNA (OriGene); His6; made in house", "T1 sequence (P28654 17-354)": "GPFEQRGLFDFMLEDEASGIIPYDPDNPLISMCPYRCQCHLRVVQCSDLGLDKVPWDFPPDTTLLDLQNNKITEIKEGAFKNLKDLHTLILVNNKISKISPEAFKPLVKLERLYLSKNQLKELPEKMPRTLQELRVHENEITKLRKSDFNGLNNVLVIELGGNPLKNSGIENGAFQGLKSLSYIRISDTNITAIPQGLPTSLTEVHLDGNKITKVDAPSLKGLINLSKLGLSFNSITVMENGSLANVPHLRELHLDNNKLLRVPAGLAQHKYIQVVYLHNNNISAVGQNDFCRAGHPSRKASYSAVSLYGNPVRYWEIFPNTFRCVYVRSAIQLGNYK", "test": "ELISA binding assay, recombinant full-length core mouse DCN", "conditions": "His6-tagged protein coated at 10 μg/ml", "from_the_text": "(§1) Immunoblotting and Binding Assays: Protein preparations resolved on SDS-PAGE were blotted onto Immobilon-FL membrane (Millipore), blocked with Odyssey blocking buffer (Licor Biosciences), and probed (in PBS/0.05% Triton X-100) with goat anti-DCN (R&D Systems, 1:1,000), rabbit anti-ANX2A (Aviva, 1:1,000), rabbit anti-mouse b-actin (Abcam, 1:10,000) antibodies, or pre- and post-immune antisera against WAT7 (1:1,000) as indicated. Signal was detected by Odyssey imaging system using anti-goat IRDye 800CW or anti-rabbit IRDye 680 both from Licor Biosciences. Bovine DCN was from Sigma-Aldrich, NS0-derived murine DCN was from R&D Systems. Murine DCN cDNA was generated from WAT total RNA using SuperScript kit (Invitrogen). For bacterial expression, full-length mouse core DCN and ΔDCN isoforms were produced by cloning fragments encoding amino acids 1-354 and 45-354 of mouse DCN cDNA (OriGene) or of CLIC4 cDNA (OriGene) in-frame with the His6Tag into pET28a vector, respectively. His6-tagged proteins were purified with His-Tag kit (Novagen). […] Bound peptides or FLAG-resistin were probed with corresponding rabbit anti-peptide Genemed antibodies (1:2,000) or rabbit anti-FLAG antibodies (Sigma-Aldrich, 1:2,000) followed by secondary goat anti-rabbit HRP-conjugated antibodies (Millipore, 1:5,000) and signal detection with Ultra-TMB (Pierce) substrate and measurement of absorbance at 450 nm. […]"}, "[2]": {"biological_target": "T2, recombinant bacterially-purified mouse ΔDCN (Mus musculus, UniProt P28654)", "T2 construct": "cloning fragments encoding amino acids 1-354 and 45-354 of mouse DCN cDNA (OriGene); His6; made in house", "T2 sequence (P28654 45-354)": "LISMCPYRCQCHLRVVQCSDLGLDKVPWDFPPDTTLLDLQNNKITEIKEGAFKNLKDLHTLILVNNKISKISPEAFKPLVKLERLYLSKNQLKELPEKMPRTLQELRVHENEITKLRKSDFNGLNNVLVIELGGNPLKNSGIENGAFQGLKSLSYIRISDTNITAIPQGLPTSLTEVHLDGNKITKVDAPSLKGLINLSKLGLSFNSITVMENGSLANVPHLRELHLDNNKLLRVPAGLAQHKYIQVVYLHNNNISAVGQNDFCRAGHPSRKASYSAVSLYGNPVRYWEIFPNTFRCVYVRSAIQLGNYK", "test": "ELISA binding assay, ΔDCN", "conditions": "His6-tagged protein coated at 10 μg/ml", "from_the_text": "as §1"}, "[3]": {"system": "subcutaneous and intraperitoneal WAT cells (ASC)", "test": "In vivo apoptosis in WAT cells, APO-TRACE and flow cytometry", "design": "species or system mice", "conditions": "2 mg injected, 48 hrs, subcutaneous and intraperitoneal adipose tissue"}, "primary mouse ASC [4]": {"system": "primary mouse ASC", "test": "Apoptosis detection in treated ASC, APO-TRACE and flow cytometry", "type": "cell-based", "conditions": "APO-TRACE reagent, flow cytometry"}, "primary mouse ASC [5]": {"system": "primary mouse ASC", "test": "In vitro killing of primary ASC cultures, trypan blue exclusion", "type": "cell-based", "conditions": "0.01 mM, 0.05 mM and 0.10 mM, trypan blue dye exclusion"}},
  "note": "Entries after “also recorded” stand apart in the source; their conditions may differ. Not every detail of the peptide structures is certain; ends, links or a residue may be inferred.",
  "data": [
    {"smiles": "NCCCC[C@@H]1NC(=O)[C@H](Cc2c[nH]c3ccccc23)NC(=O)[C@H](CO)NC(=O)[C@@H](N)CSSC[C@@H](C(=O)O)NC(=O)[C@H](CCC(=O)O)NC(=O)CNC(=O)[C@H](Cc2ccccc2)NC(=O)[C@H](Cc2c[nH]c3ccccc23)NC(=O)[C@H](Cc2ccc(O)cc2)NC1=O", "note": "[WAT-7, SWKYWFGE]", "values": [
      {"measurement": "binding to recombinant core mouse DCN (OD450)", "setting": "[1]", "result": "clear dose-dependent binding"},
      {"measurement": "binding to ΔDCN (OD450)", "setting": "[2]", "result": "bound to ΔDCN; also recorded: dose-dependent"}
    ]},
    {"smiles": "CC(C)C[C@@H](NC(=O)[C@@H](CCCCN)NC(=O)CCCCCNC(=O)[C@H]1CSSC[C@@H](N)C(=O)N[C@H](CO)C(=O)N[C@H](Cc2c[nH]c3ccccc23)C(=O)N[C@H](CCCCN)C(=O)N[C@H](Cc2ccc(O)cc2)C(=O)N[C@H](Cc2c[nH]c3ccccc23)C(=O)N[C@H](Cc2ccccc2)C(=O)NCC(=O)N[C@H](CCC(=O)O)C(=O)N1)C(=O)N[C@H](C)C(=O)N[C@H](CCCCN)C(=O)N[C@H](CC(C)C)C(=O)N[C@H](C)C(=O)N[C@H](CCCCN)C(=O)N[C@H](CCCCN)C(=O)N[C@H](CC(C)C)C(=O)N[C@H](C)C(=O)N[C@H](CCCCN)C(=O)N[C@H](CC(C)C)C(=O)N[C@H](C)C(=O)N[C@H](CCCCN)C(=O)O", "note": "[WAT7-KLAKLAK2]", "values": [
      {"measurement": "apoptotic cell death in WAT", "setting": "[3]", "result": "apoptotic cell deal in ASC; also recorded: cell death was detected in WAT"},
      {"measurement": "induction of apoptosis in treated ASC", "setting": "primary mouse ASC [4]", "result": "induced apoptosis and cell death"},
      {"measurement": "killing of primary mouse ASC in culture", "setting": "primary mouse ASC [5]", "result": "efficiently killed"}
    ]}
  ]
}
